From the supplement of paper PMC10849652
This is one part of the list.

Chains of the proteins cited; added tags and fusions are not shown. Lines headed by an entry give the natural chain unless they say otherwise; changes in a name come on top.
UniProt Q16401: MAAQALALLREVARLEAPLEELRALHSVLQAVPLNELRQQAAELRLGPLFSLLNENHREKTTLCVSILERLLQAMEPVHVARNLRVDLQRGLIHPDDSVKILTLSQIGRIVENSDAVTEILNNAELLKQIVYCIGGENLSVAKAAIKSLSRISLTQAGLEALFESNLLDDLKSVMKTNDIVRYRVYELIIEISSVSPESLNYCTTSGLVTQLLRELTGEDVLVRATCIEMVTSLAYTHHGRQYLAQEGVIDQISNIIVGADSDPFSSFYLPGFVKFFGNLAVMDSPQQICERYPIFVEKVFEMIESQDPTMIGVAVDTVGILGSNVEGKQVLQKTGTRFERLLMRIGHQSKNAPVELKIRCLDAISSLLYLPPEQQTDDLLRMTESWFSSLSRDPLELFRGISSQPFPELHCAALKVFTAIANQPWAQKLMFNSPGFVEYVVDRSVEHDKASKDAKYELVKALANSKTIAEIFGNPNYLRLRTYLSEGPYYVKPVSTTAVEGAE
UniProt P06737: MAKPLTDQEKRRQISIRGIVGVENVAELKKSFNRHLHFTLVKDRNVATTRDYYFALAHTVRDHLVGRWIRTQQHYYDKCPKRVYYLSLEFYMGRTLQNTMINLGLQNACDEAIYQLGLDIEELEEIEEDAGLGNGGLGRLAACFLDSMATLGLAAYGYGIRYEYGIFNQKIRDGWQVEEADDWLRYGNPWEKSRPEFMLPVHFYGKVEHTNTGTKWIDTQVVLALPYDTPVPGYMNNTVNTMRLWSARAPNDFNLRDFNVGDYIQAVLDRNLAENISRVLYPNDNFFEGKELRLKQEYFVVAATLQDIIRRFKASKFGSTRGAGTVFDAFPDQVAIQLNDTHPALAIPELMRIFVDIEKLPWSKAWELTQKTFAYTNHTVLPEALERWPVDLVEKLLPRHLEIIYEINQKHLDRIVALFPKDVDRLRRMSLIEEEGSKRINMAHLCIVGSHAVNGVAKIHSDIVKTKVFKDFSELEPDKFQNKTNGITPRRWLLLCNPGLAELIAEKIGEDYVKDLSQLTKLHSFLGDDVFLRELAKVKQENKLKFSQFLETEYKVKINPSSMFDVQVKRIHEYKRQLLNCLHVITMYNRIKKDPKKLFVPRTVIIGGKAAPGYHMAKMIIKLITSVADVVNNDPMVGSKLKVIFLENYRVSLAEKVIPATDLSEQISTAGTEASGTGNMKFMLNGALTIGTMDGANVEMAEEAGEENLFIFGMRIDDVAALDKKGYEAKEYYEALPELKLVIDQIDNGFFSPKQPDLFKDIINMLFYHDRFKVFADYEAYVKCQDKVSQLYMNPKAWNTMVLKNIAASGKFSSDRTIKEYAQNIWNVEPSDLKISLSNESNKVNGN
UniProt Q15185: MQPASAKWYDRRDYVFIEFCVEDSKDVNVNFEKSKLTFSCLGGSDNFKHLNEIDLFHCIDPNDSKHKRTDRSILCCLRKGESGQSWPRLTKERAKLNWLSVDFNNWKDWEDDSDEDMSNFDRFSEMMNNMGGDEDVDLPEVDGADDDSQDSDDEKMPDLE
UniProt Q2TAL8: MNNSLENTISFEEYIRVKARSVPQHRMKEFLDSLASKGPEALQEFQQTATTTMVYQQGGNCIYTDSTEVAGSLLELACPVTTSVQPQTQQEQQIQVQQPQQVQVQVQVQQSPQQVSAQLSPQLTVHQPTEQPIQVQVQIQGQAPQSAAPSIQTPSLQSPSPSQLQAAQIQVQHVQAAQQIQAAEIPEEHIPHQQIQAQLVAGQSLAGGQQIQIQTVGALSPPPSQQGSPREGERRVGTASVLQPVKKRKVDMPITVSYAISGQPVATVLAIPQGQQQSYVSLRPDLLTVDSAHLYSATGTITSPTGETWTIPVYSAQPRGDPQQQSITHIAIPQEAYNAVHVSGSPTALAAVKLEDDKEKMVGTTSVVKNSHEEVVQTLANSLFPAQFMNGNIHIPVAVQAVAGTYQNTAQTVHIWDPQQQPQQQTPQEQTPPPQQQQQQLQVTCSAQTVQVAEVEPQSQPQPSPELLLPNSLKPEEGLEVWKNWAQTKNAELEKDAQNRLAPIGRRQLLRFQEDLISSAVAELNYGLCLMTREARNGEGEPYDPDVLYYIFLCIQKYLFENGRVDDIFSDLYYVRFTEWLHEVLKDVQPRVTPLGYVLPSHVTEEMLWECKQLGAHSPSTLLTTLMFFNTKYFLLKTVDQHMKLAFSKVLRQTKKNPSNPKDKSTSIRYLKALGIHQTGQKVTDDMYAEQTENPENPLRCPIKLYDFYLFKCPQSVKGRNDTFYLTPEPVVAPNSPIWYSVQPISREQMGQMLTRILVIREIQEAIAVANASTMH
UniProt Q12974: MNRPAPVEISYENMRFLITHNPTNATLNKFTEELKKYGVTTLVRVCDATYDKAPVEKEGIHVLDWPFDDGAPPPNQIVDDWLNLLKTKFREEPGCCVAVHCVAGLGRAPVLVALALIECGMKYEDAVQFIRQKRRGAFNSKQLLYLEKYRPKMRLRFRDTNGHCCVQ
UniProt P28074: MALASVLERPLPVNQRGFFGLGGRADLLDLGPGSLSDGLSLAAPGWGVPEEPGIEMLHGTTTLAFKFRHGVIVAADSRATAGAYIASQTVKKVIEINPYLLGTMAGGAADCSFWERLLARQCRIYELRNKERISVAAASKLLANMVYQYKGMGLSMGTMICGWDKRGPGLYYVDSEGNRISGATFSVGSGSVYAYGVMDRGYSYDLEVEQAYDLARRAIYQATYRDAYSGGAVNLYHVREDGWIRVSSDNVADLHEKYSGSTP
UniProt P48556: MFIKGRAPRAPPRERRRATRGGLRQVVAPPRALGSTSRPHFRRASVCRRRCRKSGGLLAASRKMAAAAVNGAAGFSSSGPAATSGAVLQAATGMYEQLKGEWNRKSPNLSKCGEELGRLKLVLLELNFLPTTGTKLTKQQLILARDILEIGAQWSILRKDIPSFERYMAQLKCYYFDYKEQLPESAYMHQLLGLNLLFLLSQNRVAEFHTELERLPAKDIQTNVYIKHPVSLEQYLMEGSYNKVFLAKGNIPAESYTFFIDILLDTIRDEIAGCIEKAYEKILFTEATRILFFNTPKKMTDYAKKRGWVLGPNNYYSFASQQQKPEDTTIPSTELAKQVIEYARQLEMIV
UniProt Q14289, whole entry, looked up: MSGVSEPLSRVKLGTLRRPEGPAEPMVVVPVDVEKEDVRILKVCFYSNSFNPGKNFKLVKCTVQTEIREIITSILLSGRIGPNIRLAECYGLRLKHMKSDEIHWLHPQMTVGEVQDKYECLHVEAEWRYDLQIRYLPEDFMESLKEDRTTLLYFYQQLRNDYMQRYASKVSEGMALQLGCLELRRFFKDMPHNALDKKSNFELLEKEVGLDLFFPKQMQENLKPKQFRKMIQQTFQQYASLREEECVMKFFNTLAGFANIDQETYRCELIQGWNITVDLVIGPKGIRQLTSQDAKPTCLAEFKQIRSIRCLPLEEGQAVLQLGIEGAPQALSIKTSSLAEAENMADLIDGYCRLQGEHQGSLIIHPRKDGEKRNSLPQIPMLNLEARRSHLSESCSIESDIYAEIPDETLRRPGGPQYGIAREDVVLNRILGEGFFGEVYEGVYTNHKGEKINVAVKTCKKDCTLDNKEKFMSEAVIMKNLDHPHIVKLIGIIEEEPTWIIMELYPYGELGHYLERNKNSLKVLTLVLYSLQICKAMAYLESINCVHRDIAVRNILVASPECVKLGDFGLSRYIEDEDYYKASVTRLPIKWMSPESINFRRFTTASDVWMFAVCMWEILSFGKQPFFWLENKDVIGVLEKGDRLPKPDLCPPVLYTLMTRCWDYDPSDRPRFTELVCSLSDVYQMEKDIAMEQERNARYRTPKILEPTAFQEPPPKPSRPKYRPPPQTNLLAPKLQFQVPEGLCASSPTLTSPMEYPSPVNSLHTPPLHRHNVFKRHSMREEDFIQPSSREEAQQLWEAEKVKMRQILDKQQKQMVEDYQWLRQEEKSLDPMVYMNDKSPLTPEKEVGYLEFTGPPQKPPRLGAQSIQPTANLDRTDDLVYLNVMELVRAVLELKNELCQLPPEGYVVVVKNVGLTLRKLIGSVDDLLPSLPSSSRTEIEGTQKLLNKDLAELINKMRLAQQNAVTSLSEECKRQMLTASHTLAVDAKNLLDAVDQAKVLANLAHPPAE
UniProt Q8WU10: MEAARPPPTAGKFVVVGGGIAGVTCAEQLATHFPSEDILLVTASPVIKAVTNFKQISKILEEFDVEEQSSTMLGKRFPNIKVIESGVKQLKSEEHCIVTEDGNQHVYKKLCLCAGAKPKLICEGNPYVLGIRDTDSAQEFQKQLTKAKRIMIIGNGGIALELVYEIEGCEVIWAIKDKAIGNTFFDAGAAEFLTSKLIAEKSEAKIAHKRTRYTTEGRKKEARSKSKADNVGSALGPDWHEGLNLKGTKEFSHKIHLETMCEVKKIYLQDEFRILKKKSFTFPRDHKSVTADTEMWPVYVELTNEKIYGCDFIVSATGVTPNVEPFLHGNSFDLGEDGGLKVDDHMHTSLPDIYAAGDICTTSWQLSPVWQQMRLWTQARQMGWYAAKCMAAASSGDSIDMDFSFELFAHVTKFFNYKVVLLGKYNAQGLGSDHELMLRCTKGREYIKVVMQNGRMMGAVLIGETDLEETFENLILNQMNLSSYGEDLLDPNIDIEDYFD
UniProt Q13332: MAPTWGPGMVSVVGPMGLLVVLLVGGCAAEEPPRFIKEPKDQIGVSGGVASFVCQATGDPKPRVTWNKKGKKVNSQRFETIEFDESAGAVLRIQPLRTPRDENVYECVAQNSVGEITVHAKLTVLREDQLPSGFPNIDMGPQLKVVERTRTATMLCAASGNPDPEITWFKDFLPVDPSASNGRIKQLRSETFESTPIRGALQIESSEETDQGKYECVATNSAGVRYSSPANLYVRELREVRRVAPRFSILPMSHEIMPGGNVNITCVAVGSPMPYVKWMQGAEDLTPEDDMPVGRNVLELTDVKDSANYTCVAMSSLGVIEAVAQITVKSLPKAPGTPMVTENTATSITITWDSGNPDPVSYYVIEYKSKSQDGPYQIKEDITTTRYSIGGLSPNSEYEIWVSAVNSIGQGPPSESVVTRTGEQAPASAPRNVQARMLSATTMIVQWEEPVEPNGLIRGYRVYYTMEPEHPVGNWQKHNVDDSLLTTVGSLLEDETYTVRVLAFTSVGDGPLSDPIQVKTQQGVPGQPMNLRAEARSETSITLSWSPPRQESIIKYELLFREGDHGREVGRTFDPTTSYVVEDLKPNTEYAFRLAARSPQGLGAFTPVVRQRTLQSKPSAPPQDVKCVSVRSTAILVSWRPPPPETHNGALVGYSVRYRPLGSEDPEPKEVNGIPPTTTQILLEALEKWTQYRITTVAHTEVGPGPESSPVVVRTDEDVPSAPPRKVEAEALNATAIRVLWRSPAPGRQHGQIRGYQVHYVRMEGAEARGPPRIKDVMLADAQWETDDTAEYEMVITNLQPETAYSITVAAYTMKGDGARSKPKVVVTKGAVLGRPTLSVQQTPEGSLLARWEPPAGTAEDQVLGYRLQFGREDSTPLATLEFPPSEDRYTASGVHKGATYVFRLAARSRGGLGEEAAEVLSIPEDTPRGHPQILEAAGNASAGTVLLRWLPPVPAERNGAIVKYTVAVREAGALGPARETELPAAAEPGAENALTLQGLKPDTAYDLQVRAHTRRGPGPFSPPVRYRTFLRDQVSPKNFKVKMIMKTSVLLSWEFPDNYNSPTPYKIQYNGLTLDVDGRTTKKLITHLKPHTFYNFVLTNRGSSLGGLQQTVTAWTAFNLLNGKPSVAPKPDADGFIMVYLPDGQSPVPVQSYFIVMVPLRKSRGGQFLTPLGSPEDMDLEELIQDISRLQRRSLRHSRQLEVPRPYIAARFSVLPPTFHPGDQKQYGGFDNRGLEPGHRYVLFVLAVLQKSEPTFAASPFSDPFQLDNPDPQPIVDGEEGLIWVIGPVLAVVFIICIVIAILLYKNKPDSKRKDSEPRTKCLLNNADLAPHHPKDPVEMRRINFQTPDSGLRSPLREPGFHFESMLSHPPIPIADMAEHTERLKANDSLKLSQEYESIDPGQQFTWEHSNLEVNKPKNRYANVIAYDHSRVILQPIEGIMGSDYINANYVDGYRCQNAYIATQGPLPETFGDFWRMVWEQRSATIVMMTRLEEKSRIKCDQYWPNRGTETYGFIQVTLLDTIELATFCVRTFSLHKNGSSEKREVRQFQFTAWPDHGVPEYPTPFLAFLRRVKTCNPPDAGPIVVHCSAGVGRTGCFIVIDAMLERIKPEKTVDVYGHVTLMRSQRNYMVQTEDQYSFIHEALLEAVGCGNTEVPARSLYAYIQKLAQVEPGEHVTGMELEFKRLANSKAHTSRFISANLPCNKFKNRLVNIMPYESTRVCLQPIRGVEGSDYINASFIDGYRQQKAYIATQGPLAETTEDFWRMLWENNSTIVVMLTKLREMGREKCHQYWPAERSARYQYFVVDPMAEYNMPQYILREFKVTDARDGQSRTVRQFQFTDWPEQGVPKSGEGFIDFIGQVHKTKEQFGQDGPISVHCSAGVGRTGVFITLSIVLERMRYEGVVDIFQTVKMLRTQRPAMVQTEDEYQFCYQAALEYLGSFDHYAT

Columns and labels:
Test in all cases: log2 fold change, soluble protein after heating vs DMSO (PISA); higher = thermal stabilisation; K562 cells, 10 uM, 30 min; active = over 0.2 and 3.5 SD of the protein, either way, in both replicates (recomputed)
[1] = compound: CC1=C(C=C(C=C1)NC(=O)C2=CC(=CC=C2)C(C)(C)C#N)NC3=CC4=C(C=C3)N=CN(C4=O)C
Outline: (§1)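 Soluble protein was quantified by TMTpro 16plex LC-MS/MS after channel sums were equalised. It was obtained as the supernatant after 21,000xg for 90 min from pooled aliquots of K562 cells (2×10^6 cells/mL, 10 μM compound, 30 min) heated for 3 min across 48°C-58°C and extracted in PBS with 0.5% NP-40 at 4°C. Thermal stability values are relative to control samples and come from duplicates. They are given as log2 fold changes.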

[2] = compound: CC1=C(C=C(C=C1)NC(=O)C2=CC(=CC=C2)N(C)C)NC(=O)C3=CC=C(C=C3)O
Outline: as §1

[3] = compound: CC1=CC=C(C=C1)SC2=C3C=C(SC3=CN=C2)C(=O)N
Outline: as §1

[4] = compound: CC1=NC(=CC=C1)C2=C(N=C(N2)C(C)(C)C)C3=CC4=NC=CN=C4C=C3
Outline: as §1

Nexturastat A = compound: CCCCN(Cc1ccc(C(=O)NO)cc1)C(=O)Nc1ccccc1 [Nexturastat A]
Outline: as §1

vemurafenib = compound: CCCS(=O)(=O)Nc1ccc(F)c(C(=O)c2c[nH]c3ncc(-c4ccc(Cl)cc4)cc23)c1F [vemurafenib]
Outline: as §1

[5] = compound: CCCS(=O)(=O)Nc1ccc(F)c(C(=O)c2c[nH]c3ncc(Cl)cc23)c1F
Outline: as §1

[6] = compound: CCCc1cc(C)[nH]c(=O)c1CNC(=O)c1cc(-c2ccnc(N3CCN(C)CC3)c2)cc2c1cnn2C(C)C
Outline: as §1

givinostat = compound: CCN(CC)Cc1ccc2cc(COC(=O)Nc3ccc(C(=O)NO)cc3)ccc2c1 [givinostat]
Outline: as §1

barasertib = compound: CCN(CCCOc1ccc2c(Nc3cc(CC(=O)Nc4cccc(F)c4)[nH]n3)ncnc2c1)CCOP(=O)(O)O [barasertib]
Outline: as §1

[7] = compound: CC[C@@H]1C(=O)N(C)c2cnc(Nc3ccc(C(=O)NC4CCN(C)CC4)cc3OC)nc2N1C1CCCC1
Outline: as §1

volasertib = compound: CC[C@@H]1C(=O)N(C)c2cnc(Nc3ccc(C(=O)N[C@H]4CC[C@H](N5CCN(CC6CC6)CC5)CC4)cc3OC)nc2N1C(C)C [volasertib]
Outline: as §1

[8] = compound: CC[C@H](C)N1C=C(C2=C(C=C(C=C21)C3=CN=C(C=C3)N4CCNCC4)C(=O)NCC5=C(C=C(NC5=O)C)C)C
Outline: as §1

epoxomicin = compound: CC[C@H](C)[C@@H](C(=O)N[C@@H]([C@@H](C)O)C(=O)N[C@@H](CC(C)C)C(=O)[C@]1(CO1)C)NC(=O)[C@H]([C@@H](C)CC)N(C)C(=O)C [epoxomicin]
Outline: as §1

[9] = compound: CCn1cc(-c2ccnc3[nH]c(-c4cccc(CN(C)C)c4)cc23)c(-c2ccc(NC(=O)N(C)C)cc2)n1
Outline: as §1

[10] = compound: CN(C)CC(=O)Nc1ccc2[nH]c(=O)c3ccccc3c2c1
Outline: as §1

[11] = compound: CN1C2=C(C3=C1C(=O)N(N=C3)CC4=CC(=CC=C4)N)SC(=C2)S(=O)C
Outline: as §1

[12] = compound: CN1CCC(CNc2ccc3ncc(-c4cccc(OC(F)(F)F)c4)n3n2)CC1
Outline: as §1

[13] = compound: CCn1c(C(=O)N(C2CC2)C2CC2)cc2c3c(ncn3C)c(Nc3cc(C)n(C)n3)nc21
Outline: as §1

rosiglitazone = compound: CN(CCOC1=CC=C(C=C1)C[C@H]2C(=O)NC(=O)S2)C3=CC=CC=N3 (racemic) [rosiglitazone]
Outline: as §1

Target	log2 fold change [1]	log2 fold change [2]	log2 fold change [3]	log2 fold change [4]	log2 fold change (Nexturastat A)	log2 fold change (vemurafenib)	log2 fold change [5]	log2 fold change [6]	log2 fold change (givinostat)	log2 fold change (barasertib)	log2 fold change [7]	log2 fold change (volasertib)	log2 fold change [8]	log2 fold change (epoxomicin)	log2 fold change [9]	log2 fold change [10]	log2 fold change [11]	log2 fold change [12]	log2 fold change [13]	log2 fold change (rosiglitazone)
PSMD5 (UniProt Q16401)	inactive: -0.009	inactive: -0.001	inactive: 0.023	inactive: 0.027	inactive: -0.01	inactive: 0.015	inactive: 0.047	inactive: 0.003	inactive: -0.007	inactive: 0.027	inactive: -0.112	active: -0.225	inactive: 0.013	inactive: 0.027	inactive: -0.026	inactive: -0.011	inactive: -0.043	inactive: -0.038		
PTPMT1 (UniProt Q8WUK0)	inactive: 0.043	inactive: -0.019	inactive: 0.025	inactive: 0.025	inactive: -0.114	inactive: -0.047	inactive: 0.031	inactive: -0.029	inactive: -0.029	inactive: 0.041	inactive: -0.298	inactive: -0.127	inactive: 0.002	inactive: 0.088	inactive: -0.051	inactive: 0.012	inactive: -0.006	active: -1.21		
PYGL (UniProt P06737)	inactive: -0.105	inactive: 0.011	inactive: 0.011	inactive: 0.006	inactive: -0.018	inactive: -0.009	inactive: 0.003	inactive: -0.015	inactive: 0.012	inactive: -0.01	inactive: -0.091	active: -0.262	inactive: 0.008	inactive: -0.02	inactive: 0.016	inactive: -0.001	inactive: -0.006	inactive: 0.029		
PTDSS1 (UniProt P48651)	inactive: 0.005	inactive: -0.006	inactive: 0.08	inactive: -0.01	inactive: 0.192	inactive: -0.055	inactive: 0.019	inactive: -0.007	inactive: 0.072	inactive: 0.03	inactive: 0.004	inactive: 0.009	inactive: -0.069	inactive: -0.035	inactive: 0.124	inactive: 0	inactive: 0.177	inactive: -0.081		
PTPN18 (UniProt Q99952)	inactive: 0.115	inactive: -0.071		inactive: 0.237				inactive: 0.005	inactive: 0		inactive: 0.157		inactive: 0.044						inactive: 0.144	
PSMC5 (UniProt P62195)	inactive: 0.014	inactive: 0.011	inactive: -0.029	inactive: -0.05	inactive: 0.003	inactive: -0.048	inactive: -0.053	inactive: 0.032	inactive: -0.082	inactive: -0.034	inactive: 0.043	inactive: 0.178	inactive: -0.002	active: -0.308	inactive: 0.039	inactive: -0.029	inactive: 0.015	inactive: 0.066		
PTGES3 (UniProt Q15185)	inactive: 0.039	inactive: -0.073	inactive: 0.044	inactive: 0.078	inactive: -0.046	inactive: 0.032	inactive: 0.111	inactive: 0.034	inactive: 0.026	inactive: 0.064	inactive: -0.21	active: -0.504	inactive: 0.096	inactive: 0.041	inactive: -0.11	inactive: 0.049	inactive: -0.045	inactive: -0.134		
QRICH1 (UniProt Q2TAL8)	inactive: 0.064	inactive: -0.021	inactive: 0.06	inactive: 0.192	inactive: 0.158	inactive: 0.173	inactive: 0.122	inactive: -0.215	inactive: 0.07	inactive: 0.214	active: -0.464	inactive: -0.39	inactive: 0.07	inactive: 0.027		inactive: 0.258	inactive: 0			
QSOX1 (UniProt O00391)	inactive: -0.035	inactive: 0.083		inactive: -0.037	inactive: -0.024	inactive: -0.033		inactive: 0.037	inactive: 0.031	inactive: -0.021	inactive: 0.122		inactive: 0.002	inactive: -0.117	inactive: -0.01	inactive: 0.026	inactive: 0.138	inactive: 0.119	inactive: -0.022	inactive: 0.042
PTPN7 isoform 3 (UniProt P35236)	inactive: 0.107	inactive: -0.047	inactive: 0.019			inactive: 0.016	inactive: 0.008		inactive: -0.119		inactive: 0.1	inactive: -0.275				inactive: -0.051			inactive: 0.098	
PTP4A2 (UniProt Q12974)	inactive: 0.026	inactive: -0.045	inactive: 0.012	inactive: 0.076	inactive: -0.069	inactive: -0.002	inactive: -0.129	inactive: 0.02	inactive: -0.022	inactive: -0.006	inactive: 0.039	inactive: 0.083	inactive: 0.077	inactive: 0.153		inactive: -0.026	inactive: -0.003			
PSMB5 (UniProt P28074)	inactive: 0.077	inactive: 0.02	inactive: 0.005	inactive: -0.004	inactive: 0.026	inactive: -0.016	inactive: 0.017	inactive: 0.037	inactive: -0.037	inactive: -0.058	inactive: 0.045	inactive: 0.091	inactive: -0.013		inactive: 0.03	inactive: -0.058	inactive: 0.009	inactive: 0.069	inactive: 0.019	inactive: -0.023
PSMD8 (UniProt P48556)	inactive: 0.044	inactive: 0.047	inactive: -0.056	inactive: -0.045	inactive: 0.128	inactive: -0.082	inactive: -0.073	inactive: 0.022	inactive: -0.04	inactive: -0.034	inactive: 0.054	inactive: 0.25	inactive: -0.01	active: -0.286	inactive: 0.039	inactive: -0.037	inactive: 0.035	inactive: 0.016		
PSEN1 (UniProt P49768)	inactive: -0.05	inactive: -0.013	inactive: -0.062	inactive: 0.032	inactive: -0.273	inactive: -0.021	inactive: 0.068	inactive: -0.093		inactive: -0.039	inactive: 0.035	inactive: 0.082	inactive: -0.145	inactive: 0.026		inactive: -0.011	inactive: 0.116			inactive: 0.164
PTK2B (UniProt Q14289)	inactive: -0.09	inactive: 0	inactive: 0.06	inactive: -0.008	inactive: 0.217	inactive: -0.129	inactive: 0	inactive: 0.06	inactive: 0.421	inactive: 0.031		active: -1.28	inactive: -0.244	inactive: -0.012	inactive: -0.141	inactive: 0.017	inactive: 0.082	inactive: -0.051		
PYROXD1 (UniProt Q8WU10)	inactive: -0.374	inactive: -0.079	inactive: 0.178	inactive: 0.041	inactive: -0.117	inactive: 0.13	inactive: 0.222	inactive: 0.058	inactive: -0.083	inactive: 0.014		inactive: -0.079	inactive: -0.099	inactive: -0.153		inactive: 0.028	inactive: 0.003		inactive: 0.07	inactive: 0.015
PSMB2, A0A087WVV1	inactive: 0.033	inactive: 0.044	inactive: 0.015	inactive: 0.056		inactive: 0.112	inactive: 0.11	inactive: -0.375	inactive: -0.002	inactive: -0.149	inactive: -0.057	inactive: -0.011	inactive: -0.187		inactive: 0.119	inactive: -0.102	inactive: -0.084	inactive: 0.122	inactive: -0.328	inactive: 0.052
PSMC1 (UniProt P62191)	inactive: 0.024	inactive: 0.033	inactive: -0.038	inactive: -0.069	inactive: 0.026	inactive: -0.064	inactive: -0.06	inactive: -0.012	inactive: -0.073	inactive: -0.073	inactive: 0.038	inactive: 0.129	inactive: -0.015	active: -0.342	inactive: 0.092	inactive: -0.003	inactive: 0.031	inactive: 0.051		
PTPRS (UniProt Q13332)	inactive: 0.186	inactive: -0.105		inactive: -0.091	inactive: 0.076	inactive: -0.472			inactive: 0.047	inactive: 0.114			inactive: 0.031	inactive: -0.096	inactive: 0.062	inactive: 0.371	inactive: -0.135	inactive: 0.313	inactive: -0.036	inactive: -0.474
PURA (UniProt Q00577)	inactive: 0.032	inactive: 0.032	inactive: -0.101	inactive: -0.121	inactive: 0.112	inactive: -0.111	inactive: -0.143	inactive: 0.144	inactive: -0.008	inactive: -0.091	inactive: 0.355	inactive: 0.418	inactive: -0.087	inactive: -0.197	inactive: 0.26	inactive: -0.095	inactive: 0.327	inactive: 0.441		
PSMD13 (UniProt Q9UNM6)	inactive: 0.03	inactive: 0.034	inactive: -0.068	inactive: -0.029	inactive: 0.064	inactive: -0.05	inactive: -0.048	inactive: -0.016	inactive: -0.05	inactive: -0.041	inactive: 0.075	inactive: 0.217	inactive: 0.008	active: -0.288	inactive: 0.043	inactive: -0.01	inactive: 0.02	inactive: 0.038		

Taken from above:
log2 fold change [5] with PTPMT1 (UniProt Q8WUK0) is entered as inactive: 0.031
log2 fold change (epoxomicin) with PSMC5 (UniProt P62195) is entered as active: -0.308
